Some entries share one result that the patent states for a list of compounds.
System: primary hippocampal neuronal cells
Assay: Hippocampal anoxia-reoxygenation cell death assay (neuronal ischemia stress assay)
Assay type: cell-based, mouse
Conditions: at concentrations ranging from 1 to 100 micromolar

CCOC(=O)C1(CSc2nc3ccccc3[se]2)OC(=O)C(O)=C1Sc1nc2ccccc2[se]1 (stereo not shown) [3-(Benzoselenazol-2-ylsulfanyl)-2-(benzoselenazol-2-ylsulfanylmethyl)-4-hydroxy-5-oxo-2,5-dihydro-furan-2-carboxylic acid ethyl ester]
protection against stressor-induced cell death, % of the cells tested: at least 40%

Reference: patent US7985771B2, “Furanone derivatives” (Monsanto Technology LLC, priority 2002, dated 2011)
